Binding data for one substance are collected here from paper PMC9484696.

By UniProt entry, the sequences of proteins in these tests, tags left out. Residues count along the entry.
UniProt P42081, residues 24-247: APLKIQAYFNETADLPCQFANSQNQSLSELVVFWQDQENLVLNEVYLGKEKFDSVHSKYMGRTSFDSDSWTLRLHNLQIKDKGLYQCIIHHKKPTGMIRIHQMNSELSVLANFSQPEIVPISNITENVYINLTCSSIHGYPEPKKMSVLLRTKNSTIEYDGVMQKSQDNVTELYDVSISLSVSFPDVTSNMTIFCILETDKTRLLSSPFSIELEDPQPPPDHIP
UniProt O01949, residues 20-273: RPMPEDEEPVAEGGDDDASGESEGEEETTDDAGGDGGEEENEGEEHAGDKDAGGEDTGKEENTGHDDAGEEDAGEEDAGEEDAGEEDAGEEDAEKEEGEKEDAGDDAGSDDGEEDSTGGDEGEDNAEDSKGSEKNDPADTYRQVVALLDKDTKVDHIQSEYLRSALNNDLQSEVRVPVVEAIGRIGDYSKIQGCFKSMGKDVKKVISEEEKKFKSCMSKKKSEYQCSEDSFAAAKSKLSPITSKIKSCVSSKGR

No constants are given. Whether binding was seen depends on the method and setting. Binding seen in cells or lysates may run through a third protein. Here binding means that the protein was enriched with, or labelled near, the bait; the list need not be complete. For some assays here: Where a sequence is shown, tags or fusion partners need not be part of it.

Assay [1] addresses T1, human CD14 receptor bait protein with Fc-tag (human) (UniProt P08571).
T1 sequence: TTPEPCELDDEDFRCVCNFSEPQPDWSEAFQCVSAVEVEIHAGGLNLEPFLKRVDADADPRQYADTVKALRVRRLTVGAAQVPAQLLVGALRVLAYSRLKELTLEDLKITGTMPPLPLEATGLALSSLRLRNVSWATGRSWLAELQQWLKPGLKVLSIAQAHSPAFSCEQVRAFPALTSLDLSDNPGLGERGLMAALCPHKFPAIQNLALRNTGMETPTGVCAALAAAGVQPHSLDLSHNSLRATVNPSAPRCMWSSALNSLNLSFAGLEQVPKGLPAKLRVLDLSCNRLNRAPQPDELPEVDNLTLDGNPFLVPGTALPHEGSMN
The assay can be described thus: affinity purification with mass spectrometry; Fc-tagged receptor baits on protein A beads (TLR4 with 6XHis on nickel beads) incubated with precleared Ae. aegypti salivary gland extract at 4°C for 1 h, washed with PBS; in a second set-up the extract met the receptor first and then the beads; bands cut from SDS-PAGE and identified by mass spectrometry; only the target purified.

Assay [2] deals with human CD86 receptor bait protein with Fc-tag (human) (UniProt P42081). The description is as above.

With “Aegyptin (AAEL010235), from salivary gland extract (from UniProt O01949 20-273)”, the binding result in assay [1] and in assay [2] was “binds” in each case.
